# Library screen at single concentrations

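Assay of Toxoplasma gondii numbers, read through their beta-galactosidase reporter with a colour substrate. Tested at 10 µM. The record gives no direction; the compounds picked for IC50 retests had high values, so higher reads as fewer parasites. Of about 67,000 compounds tested this way, about 260 (0.38%) reached 50% or more in at least one test.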

Each number is a percent effect as filed. The controls that fix the scale are not given in the record; negative values are as filed. Compounds were drawn at random from those tested, without regard to their results.

structure	percent effect
O=C(c1ccon1)N1CCc2ncnc(NCc3cccnc3)c2CC1	-1.406
Cc1nc(CN2CCC3(CCCN(C(=O)c4cnccn4)C3)C2)cs1.O=C(O)C(F)(F)F (stereo not shown)	14.65
CC(C)N(Cc1ccccn1)Cc1nc2c(cnn2C)c(=O)[nH]1	4.695
Cc1ncsc1C(=O)N1CCCC(c2noc(C(C)C)n2)C1 (stereo not shown)	5.35
COc1ccc(Cl)cc1NCCC(=O)NCCNc1cnccn1	-7.575
CC(NCc1ccccc1CN1CCCC1=O)c1ccc(C#N)cc1 (stereo not shown)	-18.4
COCC(=O)N1CCN(C(C)=O)C[C@@H]1C(=O)OC	-3.018
CN(Cc1ccccn1)C(=O)CC1CCOc2ccccc21 (stereo not shown)	-1.59
Cn1cnnc1C1CCN(C(=O)c2cc3c(s2)CCCC3)CC1	-7.754
COCCNS(=O)(=O)c1cccc(CSC)c1	-2.95
Cc1cc(NCCSc2nccn2C)n2nc(C)c(C)c2n1	4.719
O=C(COCc1ccco1)Nc1cc(C(F)(F)F)c[nH]c1=O	7.912
CNc1cc(N2CCCC2CNCc2cccs2)ncn1 (stereo not shown)	13.43
CC(=O)NCc1cc2n(n1)CCN(Cc1cccc(Cl)c1F)C2	17.33
O=C(c1ccc(SC(F)(F)F)cc1)N1CCOCC1c1ncon1 (stereo not shown)	-2.347
CC(CN1CCOCC1)NC(=O)N(C)Cc1ccc(Cl)s1 (stereo not shown)	1.559
O=C(O)C(F)(F)F.O=C(O)C(F)(F)F.O=C(O)C(F)(F)F.[H][C@@]12OCCN(Cc3cccnc3)[C@@]1([H])CC[C@H]2OCCN1CCCC1	-3.432
O=C(O)C(F)(F)F.[H][C@@]12CCN(Cc3nc(C)cs3)C[C@@]1([H])O[C@@H](c1nc(C)no1)C2	18.71
Cc1cncc(C2CCN(Cc3ccsc3)CC2)n1	17.41
CC(=O)NCC1CCC2(CCN(c3ncc(C)cn3)CC2)O1 (stereo not shown)	9.837
Cc1cc(S(=O)(=O)NCC[S+](C)[O-])c(F)cc1F (stereo not shown)	-12.96
Cc1ccc(NC2CCN(C(=O)C(C)n3cncn3)CC2)nn1 (stereo not shown)	-23.11
COCCN1CCC(CN(CC2CCCO2)C(=O)CNC(C)=O)CC1 (stereo not shown)	9.98
Cc1cc2c(cc1Cl)C=CC1(CCN(CC(=O)NC3CCCC3)CC1)O2	-1.486
COCC(NC(=O)NCc1sc(C)nc1C)c1ccco1 (stereo not shown)	4.682
CCC(=O)N1CCC2(CC1)COc1ccccc1S(=O)(=O)N(C)C2	4.094
N#Cc1ccccc1CN1CCCC(c2nccn2CC2CC2)C1 (stereo not shown)	6.079
NC(=O)c1cc2c(nc1CCOc1ccc(F)cc1)CCC2	0.5882
COCCN1CCN(C(=O)C(c2cccc(F)c2)N(C)C)CC1 (stereo not shown)	-6.066
CN(C)Cc1cc(CC2(NCc3ccccc3Cl)COC2)no1	-2.708
CCN1C(=O)CCCC12CCCN(C(=O)c1sccc1C)C2 (stereo not shown)	-1.368
CCNC(=O)NC(=O)C(C)N(C)CCOc1ccccc1C (stereo not shown)	-23.35
COC(=O)C1CCCN1C(=O)c1ccc(Br)cc1F (stereo not shown)	13.42
N#Cc1ncn(CCS(=O)(=O)c2ccc(Cl)cc2)n1	-0.3544
CN(C)C(=O)N1CCC2(CC1)NC(=O)c1ccccc12.Cl	3.722
CC(=O)N1CCN(Cc2cccs2)CC2(CC(=O)N(C)C2)C1.O=C(O)C(F)(F)F (stereo not shown)	-6.134
COCCN(C)C1COC2(CCN(Cc3cccc(F)c3)CC2)C1.O=C(O)C(F)(F)F.O=C(O)C(F)(F)F (stereo not shown)	4.935
O=c1[nH]c(NCCO)nc2c1C1(CCCCC1)Cc1ccccc1-2	-4.035
CCc1cnc(NCCS(=O)(=O)N(C)C)nc1	1.298
Cc1nc(CN2CCN(c3nc4c(s3)c(C)nn4C)CC2)cs1	-28.93
CC(C)c1nc(C2CCCN2C(=O)c2cnc[nH]2)no1 (stereo not shown)	-0.2154
COc1cccc(CC(=O)N2CCCC(c3n[nH]c4nccnc34)C2)c1 (stereo not shown)	-0.5837
CNC(=O)Cc1ccc(NC(=O)NCc2nc(C)sc2C)cc1	1.503
CC(C)(C)NC(=O)N1CCN(Cc2cccnc2)CC1	2.28
CC(CO)(NC(=O)Nc1nnc(C2CC2)s1)C1CCCCC1 (stereo not shown)	3.721

For reference, 5 entries once more:

structure,percent effect
CCc1cnc(NCCS(=O)(=O)N(C)C)nc1,1.298
COc1cccc(CC(=O)N2CCCC(c3n[nH]c4nccnc34)C2)c1 (stereo not shown),-0.5837
COCCN1CCC(CN(CC2CCCO2)C(=O)CNC(C)=O)CC1 (stereo not shown),9.98
COCCN(C)C1COC2(CCN(Cc3cccc(F)c3)CC2)C1.O=C(O)C(F)(F)F.O=C(O)C(F)(F)F (stereo not shown),4.935
COCCN1CCN(C(=O)C(c2cccc(F)c2)N(C)C)CC1 (stereo not shown),-6.066

Data taken from ChEMBL document CHEMBL3988442, “University of Dundee, Small-Polar-MMV Screening Library” (2021).